Results deposited as PubChem BioAssay AID493246 (Drosophila RNAi Screening Center, 2011).
The screen tested about 21,000 reagents; below is a random part of those that have a named target and a result. Over the whole deposit, 429 (2%) are marked active. 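Values are raw and not normalised between plates; calls rest on per-plate z-scores that were not deposited.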 The record does not give: the amount of reagent, the time to read-out.

Screen: 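Genome-wide search for dsRNAs that reduce cell number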 (primary screen)
System: Drosophila Kc and S2R+ cells
Reagent: long dsRNA against Drosophila genes
Read-out: 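Raw, unnormalised count of remaining cells in each well; per-plate z-scores of cell number underlie the calls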
Direction: Kc cell number and S2R+ cell number: higher = more cells remaining
Rule for the call: 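Active when the per-plate z-score of cell number is 3 or more in the direction of fewer cells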

| Kc cell number, rep 1 | Kc cell number, rep 2 | S2R+ cell number, rep 1 | S2R+ cell number, rep 2 | call | gene | dsRNA |
| --- | --- | --- | --- | --- | --- | --- |
| 1.76e6 | 1.83e6 | 1.11e6 | 1.24e6 | inactive | CG34183 | DRSC01099 |
| 1.51e6 | 1.60e6 | 1.13e6 | 1.27e6 | inactive | Rpt6 (Regulatory particle triple-A ATPase 6) | DRSC20571 |
| 1.52e6 | 1.54e6 | 1.21e6 | 1.26e6 | inactive | CG4049 | DRSC04443 |
| 1.52e6 | 1.47e6 | 1.06e6 | 1.10e6 | inactive | CG2444 | DRSC19846 |
| 1.57e6 | 1.66e6 | 1.39e6 | 1.51e6 | inactive | CG13126 | DRSC02222 |
| 1.51e6 | 1.51e6 | 1.02e6 | 1.18e6 | inactive | CG15296 | DRSC17983 |
| 1.28e6 | 1.36e6 | 1.10e6 | 1.18e6 | inactive | CG10934 | DRSC06017 |
| 1.51e6 | 1.59e6 | 1.21e6 | 1.28e6 | inactive | CG11999 | DRSC12185 |
| 1.39e6 | 1.81e6 | 1.40e6 | 1.61e6 | inactive | Eig71Ee (Ecdysone-induced gene 71Ee) | DRSC11152 |
| 1.43e6 | 1.42e6 | 9.65e5 | 1.06e6 | inactive | CG6000 | DRSC15938 |
| 1.43e6 | 1.45e6 | 9.84e5 | 1.07e6 | inactive | CG1894 | DRSC15396 |
| 1.70e6 | 1.67e6 | 1.33e6 | 1.44e6 | inactive | RpL37-2 (Ribosomal protein L37-2) | DRSC04584 |
| 1.89e6 | 1.94e6 | 1.44e6 | 1.71e6 | inactive | Mal-A8 (Maltase A8) | DRSC07234 |
| 1.55e6 | 1.68e6 | 1.30e6 | 3.91e5 | inactive | bero (belly roll) | DRSC03211 |
| 1.20e6 | 1.22e6 | 8.68e5 | 9.95e5 | inactive | AGO2 (Argonaute 2) | DRSC09999 |
| 1.43e6 | 1.44e6 | 9.86e5 | 1.09e6 | inactive | AGO2 (Argonaute 2) | DRSC10847 |
| 1.60e6 | 1.61e6 | 1.08e6 | 1.23e6 | inactive | CG17777 | DRSC18137 |
| 1.52e6 | 1.48e6 | 1.18e6 | 1.27e6 | inactive | CG14221 | DRSC19578 |
| 1.61e6 | 1.58e6 | 7.84e5 | 9.27e5 | inactive | CG33272 | DRSC09116 |
| 1.49e6 | 1.61e6 | 1.11e6 | 1.26e6 | inactive | Oatp74D (Organic anion transporting polypeptide 74D) | DRSC09491 |
| 1.47e6 | 1.49e6 | 1.16e6 | 1.27e6 | inactive | Oatp74D (Organic anion transporting polypeptide 74D) | DRSC10883 |
| 1.54e6 | 1.62e6 | 1.07e6 | 1.23e6 | inactive | CG6769 | DRSC20006 |
| 1.51e6 | 1.41e6 | 1.03e6 | 1.11e6 | inactive | Atg101 (Autophagy-related 101) | DRSC20020 |
| 1.20e6 | 1.35e6 | 1.05e6 | 1.17e6 | inactive | CG34355 | DRSC13639 |
| 1.52e6 | 1.47e6 | 9.70e5 | 1.03e6 | inactive | CG34355 | DRSC14520 |
| 1.52e6 | 1.46e6 | 9.82e5 | 1.09e6 | inactive | CG34355 | DRSC14668 |
